Paper PMC9273970, “Mambalgin-2 Inhibits Lung Adenocarcinoma Growth and Migration by Selective Interaction With ASIC1/α-ENaC/γ-ENaC Heterotrimer” (Frontiers in Oncology, 2022)
These are yes or no findings as the source states them, for the method shown. Binding seen in cells or lysates may run through a third protein. Some entries that bind do so weakly or less than the wild type.

Molecular target: T1, recombinant mambalgin-2 from Dendroaspis polylepis (Dendroaspis polylepis) (UniProt P0DKS3)
T1 sequence: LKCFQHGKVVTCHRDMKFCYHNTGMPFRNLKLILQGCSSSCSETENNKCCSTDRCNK
Assay: pull-down; mambalgin-2 (1 mg/ml) coupled to NHS-activated Sepharose 4 Fast Flow; membrane fraction of A549 cells solubilized in 2% Triton X-100, diluted 10 times with TBS pH 8.0, 16 h at 4°C; washes incl. TBS + 1 M NaCl + 0.5% Triton X-100; elution 200 mM glycine pH 2.6; Western blot; only the target purified

B1: γ-ENaC subunit (epithelial Na+ channel gamma) (protein, UniProt P51170 1-649)
chain: MAPGEKIKAKIKKNLPVTGPQAPTIKELMRWYCLNTNTHGCRRIVVSRGRLRRLLWIGFTLTAVALILWQCALLVFSFYTVSVSIKVHFRKLDFPAVTICNINPYKYSTVRHLLADLEQETREALKSLYGFPESRKRREAESWNSVSEGKQPRFSHRIPLLIFDQDEKGKARDFFTGRKRKVGGSIIHKASNVMHIESKQVVGFQLCSNDTSDCATYTFSSGINAIQEWYKLHYMNIMAQVPLEKKINMSYSAEELLVTCFFDGVSCDARNFTLFHHPMHGNCYTFNNRENETILSTSMGGSEYGLQVILYINEEEYNPFLVSSTGAKVIIHRQDEYPFVEDVGTEIETAMVTSIGMHLTESFKLSEPYSQCTEDGSDVPIRNIYNAAYSLQICLHSCFQTKMVEKCGCAQYSQPLPPAANYCNYQQHPNWMYCYYQLHRAFVQEELGCQSVCKEACSFKEWTLTTSLAQWPSVVSEKWLLPVLTWDQGRQVNKKLNKTDLAKLLIFYKDLNQRSIMESPANSIEMLLSNFGGQLGLWMSCSVVCVIEIIEVFFIDFFSIIARRQWQKAKEWWAWKQAPPCPEAPRSPQGQDNPALDIDDDLPTFNSALHLPPALGTQVPGTPPPKYNTLRLERAFSNQLTDTQMLDEL
Q: Which binding does the source give for B1 here?
A: binds

B2: α-ENaC subunit (epithelial Na+ channel alpha) (protein, UniProt P37088 1-669)
chain: MEGNKLEEQDSSPPQSTPGLMKGNKREEQGLGPEPAAPQQPTAEEEALIEFHRSYRELFEFFCNNTTIHGAIRLVCSQHNRMKTAFWAVLWLCTFGMMYWQFGLLFGEYFSYPVSLNINLNSDKLVFPAVTICTLNPYRYPEIKEELEELDRITEQTLFDLYKYSSFTTLVAGSRSRRDLRGTLPHPLQRLRVPPPPHGARRARSVASSLRDNNPQVDWKDWKIGFQLCNQNKSDCFYQTYSSGVDAVREWYRFHYINILSRLPETLPSLEEDTLGNFIFACRFNQVSCNQANYSHFHHPMYGNCYTFNDKNNSNLWMSSMPGINNGLSLMLRAEQNDFIPLLSTVTGARVMVHGQDEPAFMDDGGFNLRPGVETSISMRKETLDRLGGDYGDCTKNGSDVPVENLYPSKYTQQVCIHSCFQESMIKECGCAYIFYPRPQNVEYCDYRKHSSWGYCYYKLQVDFSSDHLGCFTKCRKPCSVTSYQLSAGYSRWPSVTSQEWVFQMLSRQNNYTVNNKRNGVAKVNIFFKELNYKTNSESPSVTMVTLLSNLGSQWSLWFGSSVLSVVEMAELVFDLLVIMFLMLLRRFRSRYWSPGRGGRGAQEVASTLASSPPSHFCPHPMSLSLSQPGPAPSPALTAPPPAYATLGPRPSPGGSAGASSSTCPLGGP
Q: For B2, which binding is on record?
A: binds
